Taken from: PubChem BioAssay AID1159579 (Peter MacCallum Cancer Centre, 2015)
Test: 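Retest candidate lymphatic endothelial migration regulators using several independent siRNAs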 (follow-up of hits). Cell system: human dermal lymphatic endothelial cells. Reagent: single siRNA against human genes, 25 nM. Detection: 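Scratch wound imaging measuring area filled by moving cells plus nuclei number, averaged over two wells and scaled to mock-transfected controls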. Reading the numbers: migration relative to mock: higher = more migration into the scratch; mean nuclei count: higher = more cells remaining. Hit rule: 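Called active when the migration ratio is 0.6 or lower (impaired) or 1.3 or higher (accelerated), but inactive whenever the mean nuclei count falls under 3300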. Meaning of the calls: active = migration changed (impaired or accelerated); inactive = no migration change, or too few cells.
In all, the deposit lists about 2,000 reagents; shown is a part drawn at random. 549 of them (27%) count as active. 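Some migration ratios are negative; siRNAs with too few cells are inactive whatever their migration ratio.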 Entries without a mark were called inactive. The numbers tell different reagents against one gene apart. Not stated in the record: the time to read-out.

gene	reagent no.	migration relative to mock	migration and cell number class	mean nuclei count
SETD2	1	0.48 (active)	migration reduced	5258
SETD2	2	0.82	no change in migration or cell number	6436
SETD2	3	0.6 (active)	migration reduced	6328
SETD2	4	0.8	no change in migration or cell number	5474
TMEM71	1	0.97	no change in migration or cell number	6814
TMEM71	2	0.87	no change in migration or cell number	4518
TMEM71	3	0.64	no change in migration or cell number	5138
TMEM71	4	0.11 (active)	migration reduced	3876
EFHC2	1	1.1	no change in migration or cell number	5239
EFHC2	2	0.73	no change in migration or cell number	4976
EFHC2	3	0.54 (active)	migration reduced	4132
EFHC2	4	0.95	no change in migration or cell number	5188
PLPP1	1	0.4 (active)	migration reduced	5822
PLPP1	2	0.99	no change in migration or cell number	6564
PLPP1	3	0.58 (active)	migration reduced	8020
PLPP1	4	0.98	no change in migration or cell number	7704
DRC3	1	0.73	no change in migration or cell number	4768
DRC3	2	0.7	no change in migration or cell number	6278
DRC3	3	0.82	no change in migration or cell number	6120
DRC3	4	0.9	no change in migration or cell number	4539
SETD9	1	0.91	no change in migration or cell number	4800
SETD9	2	1.02	no change in migration or cell number	5984
SETD9	3	0.98	no change in migration or cell number	5256
SETD9	4	0.64	no change in migration or cell number	4838
PALM2AKAP2	1	1.05	no change in migration or cell number	5360
PALM2AKAP2	2	1.1	no change in migration or cell number	5218
PALM2AKAP2	3	1.06	no change in migration or cell number	5767
PALM2AKAP2	4	0.73	no change in migration or cell number	5304

Single entries from the entries so far.
Entry of DRC3 #3 under “migration relative to mock”: 0.82
Under “migration relative to mock”, DRC3 #1 shows 0.73
TMEM71 #3, migration relative to mock: 0.64
